According to PubChem BioAssay AID330 (DTP/NCI, 2004):
The list is a part of this screen's results and no random one: it gathers tests that were run many times, whatever their T/C, doses with no T/C, and many T/C values between a quarter and a half above the control. Other doses and runs of a compound stand elsewhere. T/C is the treated group as % of the vehicle group. Some entries give survivors of the animals treated and no T/C: the source holds a T/C of zero for them, seemingly a mark for toxic or unscored doses. Some doses without a T/C left all or most animals alive at the check, yet need not have been tolerated: survival well below the control is almost never listed, so the zero probably covers shortened survival too. Counts of survivors are from the toxicity check (mostly the fifth day) where no day follows; animals may have died later. Schedule codes are those of the source, taken here to give the interval after Q, in days (D) or hours (H), and the number of doses after X. Some entries hold several experiments; the results are listed from low to high. Marks such as (2×) count equal records among those shown. Some molecules as drawn cover several salts, stereoisomers or complexes of the source; a dose is that of the sample tested. Where survival is the endpoint, the PubChem record calls one and a half times the control and up active, and a quarter to a half above the control has no call in these data; cut-offs in other NCI protocols can differ.

Tested on: P388 leukemia ip, CD2F1 mice, survival T/C
Assay: NCI In Vivo Anticancer Drug Screen. Data for tumor model P388 Leukemia (intraperitoneal) in CD2F1 (CDF1) mice
Settings: T/C endpoint: median survival time, higher T/C = longer survival
[1] = dose: 25.0 mg/kg/injection, schedule: Q01DX009 (ip), vehicle: saline
[2] = dose: 50.0 mg/kg/injection, schedule: Q01DX009 (ip), vehicle: saline
[3] = dose: 100.0 mg/kg/injection, schedule: Q01DX009 (ip), vehicle: saline
[4] = dose: 200.0 mg/kg/injection, schedule: Q01DX009 (ip), vehicle: saline
[5] = dose: 200.0 mg/kg/injection, schedule: Q01DX005 (ip), vehicle: Klucel (hydroxypropylcellulose) (HPC)
[6] = dose: 100.0 mg/kg/injection, schedule: Q04DX003 (ip), vehicle: saline
[7] = dose: 400.0 mg/kg/injection, schedule: Q04DX003 (ip), vehicle: saline with Tween-80
[8] = dose: 240.0 mg/kg/injection, schedule: Q01DX005 (ip), vehicle: saline with Tween-80
[9] = dose: 25.0 mg/kg/injection, schedule: Q01DX009 (ip), vehicle: saline with Tween-80
[10] = dose: 50.0 mg/kg/injection, schedule: Q01DX009 (ip), vehicle: saline with Tween-80
[11] = dose: 100.0 mg/kg/injection, schedule: Q01DX009 (ip), vehicle: saline with Tween-80
[12] = dose: 200.0 mg/kg/injection, schedule: Q01DX009 (ip), vehicle: saline with Tween-80
[13] = dose: 200.0 mg/kg/injection, schedule: Q01DX005 (ip), vehicle: saline with Tween-80
[14] = dose: 12.5 mg/kg/injection, schedule: Q01DX009 (ip), vehicle: saline with Tween-80
[15] = dose: 400.0 mg/kg/injection, schedule: Q01DX009 (ip), vehicle: saline

O=C1OCC2OC(=O)c3cc(O)c(O)c(O)c3-c3c(O)c(O)c(O)c4c3C(=O)OC(C2OC(=O)c2cc(O)c(O)c(O)c2-c2c1cc(O)c(O)c2O)C1OC(=O)c2c-4c(O)c(O)c(O)c2C1O (stereo not drawn)
survivor count (dose: 12.5 mg/kg/injection, schedule: Q01DX009 (ip), vehicle: saline): 3 of 6
survivor count [1]: 0 of 6 and 1 of 6
survivor count [2]: 3 of 6 and 5 of 6
survivor count [3]: 0 of 6 and 2 of 6
survivor count [4]: 0 of 6 (2×)

CCCCN1C(=O)/C(=C/c2ccccc2OC)SC1=S
survivor count [5]: 5 of 5

COc1cc2c(c(OC)c1OC)-c1ccc(OC)c(=O)cc1[C@@H](NC=O)CC2
T/C (dose: 0.5 mg/kg/injection, schedule: Q01DX009 (ip), vehicle: saline): 147 % of control
T/C (dose: 1.0 mg/kg/injection, schedule: Q01DX009 (ip), vehicle: saline): 147 % of control
survivor count (dose: 2.0 mg/kg/injection, schedule: Q01DX009 (ip), vehicle: saline): 6 of 6

CCCCCCCCCCCCCCCCS(=O)(=O)c1ccc(S(=O)(=O)N/N=c2/sc3ccccc3n2C)cc1C(=O)O
survivor count [2]: 5 of 6
survivor count [4]: 3 of 6

Cc1ccc(O)c(N=Nc2c(O)cc(S(=O)(=O)O)c3ccccc23)c1
survivor count (dose: 200.0 mg/kg/injection, schedule: Q01DX009 (ip), vehicle: suspension in saline): 1 of 6

CCN(CC)CCNc1ccc(COC(=O)NC)c2oc3ccccc3c(=O)c12
survivor count (dose: 12.0 mg/kg/injection, schedule: Q01DX005 (ip), vehicle: distilled water + Tween-80): 5 of 6
survivor count (dose: 25.0 mg/kg/injection, schedule: Q01DX005 (ip), vehicle: distilled water + Tween-80): 0 of 6
survivor count (dose: 50.0 mg/kg/injection, schedule: Q01DX005 (ip), vehicle: distilled water + Tween-80): 0 of 6
survivor count (dose: 100.0 mg/kg/injection, schedule: Q01DX005 (ip), vehicle: distilled water + Tween-80): 0 of 6
survivor count (dose: 200.0 mg/kg/injection, schedule: Q01DX005 (ip), vehicle: distilled water + Tween-80): 0 of 6

CCOC(=O)[C]1([Bi]([CH3])[CH3])N=NC(C(=O)OC)=C1C(=O)OC (stereo not drawn)
survivor count [6]: 1 of 6
survivor count (dose: 200.0 mg/kg/injection, schedule: Q04DX003 (ip), vehicle: saline with Tween-80): 0 of 6
survivor count [7]: 0 of 6

CCOc1ccccc1NC(=O)/C(Cl)=C(\Cl)C(=O)O
survivor count [8]: 0 of 6

CN(/N=C\c1ccccc1)C(=N)N(C)/N=C/c1ccccc1
survivor count (dose: 400.0 mg/kg/injection, schedule: Q01DX001 (ip), vehicle: Klucel (hydroxypropylcellulose) (HPC)): 3 of 6

C[n+]1cccc(NC(=O)c2ccc(NC(=O)c3ccc(C(=O)Nc4ccc(NC(=N)N)cc4)cc3)cc2)c1
T/C (dose: 6.25 mg/kg/injection, schedule: Q04DX003 (ip), vehicle: saline): 140 % of control
survivor count (dose: 18.7 mg/kg/injection, schedule: Q01DX009 (ip), vehicle: saline): 4 of 6
survivor count (dose: 25.0 mg/kg/injection, schedule: Q04DX003 (ip), vehicle: saline): 2 of 6
survivor count [6]: 0 of 6
survivor count (dose: 200.0 mg/kg/injection, schedule: Q04DX003 (ip), vehicle: saline): 0 of 6
survivor count (dose: 400.0 mg/kg/injection, schedule: Q04DX003 (ip), vehicle: saline): 0 of 6

Cc1cccc(C)c1-n1c(C)nc2[nH]cc(C)c2c1=N
survivor count (dose: 100.0 mg/kg/injection, schedule: Q01DX005 (ip), vehicle: Klucel (hydroxypropylcellulose) (HPC)): 0 of 6
survivor count [5]: 0 of 6

CCN(CC)CCOC(=O)c1ccc(N=NC2Sc3nc4ccccc4n3C2=O)cc1 (stereo not drawn)
survivor count (dose: 60.0 mg/kg/injection, schedule: Q01DX005 (ip), vehicle: Klucel (hydroxypropylcellulose) (HPC)): 6 of 6
survivor count (dose: 120.0 mg/kg/injection, schedule: Q01DX005 (ip), vehicle: Klucel (hydroxypropylcellulose) (HPC)): 3 of 6
survivor count (dose: 240.0 mg/kg/injection, schedule: Q01DX005 (ip), vehicle: Klucel (hydroxypropylcellulose) (HPC)): 0 of 6

CCCCC(CC)COCCCNCC(=O)O (stereo not drawn)
survivor count (dose: 240.0 mg/kg/injection, schedule: Q01DX005 (ip), vehicle: saline): 0 of 6

CC(=O)C[C@H](c1ccccc1)c1ccccc1[C@H](C)N(C)C
survivor count [8]: 0 of 6

C[N+]1(CSC(=O)c2ccccc2)CCCCC1
T/C [9]: 127 and 131 % of control
survivor count [1]: 3 of 6
T/C [10]: 127 % of control
survivor count [2]: 0 of 6 and 3 of 6
survivor count [11]: 3 of 6
survivor count [3]: 0 of 6
survivor count [12]: 0 of 6
survivor count [4]: 0 of 6

CC(CCC(=O)O)(c1ccc(OC(=O)Nc2cccc([N+](=O)[O-])c2)cc1)c1ccc(OC(=O)Nc2cccc([N+](=O)[O-])c2)cc1
survivor count [13]: 6 of 6

CCCCCCCCCCCCNNC(=O)[C@@H]1[C@H](c2cc(OC)c(OC)c(OC)c2)c2cc3c(cc2[C@H](O)[C@H]1CO)OCO3
T/C (dose: 100.0 mg/kg/injection, schedule: Q01DX005 (ip), vehicle: saline with Tween-80): 133 % of control
T/C [13]: 125 and 132 % of control
T/C (dose: 400.0 mg/kg/injection, schedule: Q01DX005 (ip), vehicle: saline with Tween-80): 142 % of control

CC1NNC(=S)NN1
survivor count (dose: 60.0 mg/kg/injection, schedule: Q01DX005 (ip), vehicle: saline with Tween-80): 0 of 6 and 1 of 6
survivor count (dose: 120.0 mg/kg/injection, schedule: Q01DX005 (ip), vehicle: saline with Tween-80): 0 of 6
survivor count [8]: 0 of 6

Cc1ccc(NCCNCCO)c2c(=O)c3ccc(O)cc3sc12
T/C [14]: 130 % of control
T/C [9]: 133 % of control
T/C [10]: 146 % of control
survivor count [12]: 4 of 6

CC(C)(C)CC(C)(C)c1ccc(O)c(O)c1
survivor count [4]: 2 of 6 and 6 of 6
survivor count [15]: 0 of 6
survivor count (dose: 600.0 mg/kg/injection, schedule: Q01DX009 (ip), vehicle: saline): 0 of 6 and 6 of 6

Nc1ccc2cc(S(=O)(=O)O)cc(O)c2c1N=Nc1ccc(F)cc1
survivor count [4]: 1 of 6
survivor count [15]: 0 of 6

O=Cc1ccccc1-c1ccccc1C=O
survivor count (dose: 400.0 mg/kg/injection, schedule: Q04DX002 (ip), vehicle: saline with Tween-80): 5 of 6

Cc1cc(C)n(-c2ccc(S(=O)(=O)N3CC(=O)N(c4ccccc4)C3=S)cc2)n1
survivor count [13]: 6 of 6

C1CCN(CN2CCCCC2)CC1
survivor count [4]: 0 of 6

BrCCN(CCBr)c1ccc2c3c(cccc13)-c1ccccc1-2
T/C (dose: 1.0 mg/kg/injection, schedule: Q01DX009 (ip), vehicle: saline with Tween-80): 128 % of control
T/C (dose: 2.0 mg/kg/injection, schedule: Q01DX009 (ip), vehicle: saline with Tween-80): 149 % of control
T/C [14]: 140 % of control
survivor count [9]: 6 of 6
survivor count [10]: 6 of 6
survivor count [11]: 6 of 6
survivor count [12]: 4 of 6
survivor count (dose: 264.0 mg/kg/injection, schedule: Q04DX003 (ip), vehicle: saline with Tween-80): 4 of 6
T/C [7]: 141 % of control
survivor count [7]: 2 of 6
survivor count (dose: 600.0 mg/kg/injection, schedule: Q04DX003 (ip), vehicle: saline with Tween-80): 1 of 6
